Sensitivity and Specificity data for one compound are collected here from US9562899B2, “Method of detecting OXA-048 carbapenemase producing bacteria” (BIOMÉRIEUX, priority 2012, dated 2017).

In this data set the test system is strains producing an OXA-48 carbapenemase. As to the kind of experiment: Detection of strains producing an OXA-48 carbapenemase (Example 1). The settings on record: temocillin concentration of 200 mg/l. The data set is classed as cell-based, Enterobacteriaceae.

The compound `CO[C@@]1(NC(=O)C(C(=O)O)c2ccsc2)C(=O)N2[C@@H](C(=O)O)C(C)(C)S[C@@H]21` (some centres unmarked) [temocillin] displayed a Sensitivity of 93.8% and a Specificity of 92.8%.
